In doi:10.1101/266833:
Where two headings read alike, the source gives them in different places. These are yes or no findings as the source states them, for the method shown. Binding seen in cells or lysates may run through a third protein. Here binding means that the protein was enriched with, or labelled near, the bait; the list need not be complete. For part of these data: No binding means not detected with the bait.

T1: Dcp1-TAP (S. cerevisiae) (UniProt Q12517)
T1 sequence: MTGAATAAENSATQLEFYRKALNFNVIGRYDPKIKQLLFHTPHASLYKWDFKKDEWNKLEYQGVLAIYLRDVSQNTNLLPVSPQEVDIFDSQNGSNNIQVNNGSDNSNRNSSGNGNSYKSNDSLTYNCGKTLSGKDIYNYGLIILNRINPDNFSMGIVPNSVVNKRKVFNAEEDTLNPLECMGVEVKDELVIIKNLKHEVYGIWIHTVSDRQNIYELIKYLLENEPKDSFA

T2: Ebs1-TAP (S. cerevisiae) (UniProt Q03466)
T2 sequence: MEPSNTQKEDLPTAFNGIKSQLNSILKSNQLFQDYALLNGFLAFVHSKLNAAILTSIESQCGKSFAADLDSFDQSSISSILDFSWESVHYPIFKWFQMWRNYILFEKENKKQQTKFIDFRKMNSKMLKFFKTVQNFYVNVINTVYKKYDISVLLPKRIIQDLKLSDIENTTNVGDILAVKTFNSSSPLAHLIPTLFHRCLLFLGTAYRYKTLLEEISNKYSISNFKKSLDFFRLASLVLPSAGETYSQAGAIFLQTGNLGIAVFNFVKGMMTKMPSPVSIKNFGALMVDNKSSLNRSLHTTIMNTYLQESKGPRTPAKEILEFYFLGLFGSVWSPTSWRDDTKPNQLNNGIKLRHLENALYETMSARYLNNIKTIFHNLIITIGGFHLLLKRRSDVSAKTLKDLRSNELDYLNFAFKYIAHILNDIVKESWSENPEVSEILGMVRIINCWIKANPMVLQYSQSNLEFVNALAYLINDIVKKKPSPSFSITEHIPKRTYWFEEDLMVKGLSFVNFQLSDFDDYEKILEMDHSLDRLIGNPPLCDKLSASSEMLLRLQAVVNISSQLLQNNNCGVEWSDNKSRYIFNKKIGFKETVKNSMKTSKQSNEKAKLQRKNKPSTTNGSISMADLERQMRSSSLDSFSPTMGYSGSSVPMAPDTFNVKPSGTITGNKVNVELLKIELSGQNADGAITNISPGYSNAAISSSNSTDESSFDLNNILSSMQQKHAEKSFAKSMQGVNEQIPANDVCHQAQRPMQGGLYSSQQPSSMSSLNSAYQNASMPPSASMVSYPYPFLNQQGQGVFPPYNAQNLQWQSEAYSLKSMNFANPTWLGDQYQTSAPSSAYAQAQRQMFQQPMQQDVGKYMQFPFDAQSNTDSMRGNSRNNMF

T3: Hrr25-TAP (S. cerevisiae) (UniProt P29295)
T3 sequence: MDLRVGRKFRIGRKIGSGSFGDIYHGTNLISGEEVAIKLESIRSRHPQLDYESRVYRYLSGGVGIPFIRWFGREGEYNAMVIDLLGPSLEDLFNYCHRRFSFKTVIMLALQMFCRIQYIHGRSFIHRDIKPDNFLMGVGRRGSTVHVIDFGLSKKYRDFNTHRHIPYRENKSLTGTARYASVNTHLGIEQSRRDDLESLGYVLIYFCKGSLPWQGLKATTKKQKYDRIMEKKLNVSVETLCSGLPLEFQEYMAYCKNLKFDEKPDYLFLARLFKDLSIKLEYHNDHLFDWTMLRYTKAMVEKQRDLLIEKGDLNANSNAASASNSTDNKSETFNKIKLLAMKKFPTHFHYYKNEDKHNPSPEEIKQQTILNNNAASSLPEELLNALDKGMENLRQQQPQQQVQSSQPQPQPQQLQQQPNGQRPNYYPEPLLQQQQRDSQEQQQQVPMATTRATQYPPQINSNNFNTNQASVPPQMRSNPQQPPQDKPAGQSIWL

T4: Nmd4-TAP (S. cerevisiae) (UniProt Q12129)
T4 sequence: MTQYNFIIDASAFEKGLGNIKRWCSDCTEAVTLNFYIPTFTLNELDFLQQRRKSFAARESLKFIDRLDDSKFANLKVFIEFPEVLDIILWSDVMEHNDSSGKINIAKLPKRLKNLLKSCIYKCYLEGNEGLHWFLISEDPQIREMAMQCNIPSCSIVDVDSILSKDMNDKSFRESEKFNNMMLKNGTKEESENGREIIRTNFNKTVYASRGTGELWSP

T5: Upf1-TAP (S. cerevisiae), P30771
T5 chain: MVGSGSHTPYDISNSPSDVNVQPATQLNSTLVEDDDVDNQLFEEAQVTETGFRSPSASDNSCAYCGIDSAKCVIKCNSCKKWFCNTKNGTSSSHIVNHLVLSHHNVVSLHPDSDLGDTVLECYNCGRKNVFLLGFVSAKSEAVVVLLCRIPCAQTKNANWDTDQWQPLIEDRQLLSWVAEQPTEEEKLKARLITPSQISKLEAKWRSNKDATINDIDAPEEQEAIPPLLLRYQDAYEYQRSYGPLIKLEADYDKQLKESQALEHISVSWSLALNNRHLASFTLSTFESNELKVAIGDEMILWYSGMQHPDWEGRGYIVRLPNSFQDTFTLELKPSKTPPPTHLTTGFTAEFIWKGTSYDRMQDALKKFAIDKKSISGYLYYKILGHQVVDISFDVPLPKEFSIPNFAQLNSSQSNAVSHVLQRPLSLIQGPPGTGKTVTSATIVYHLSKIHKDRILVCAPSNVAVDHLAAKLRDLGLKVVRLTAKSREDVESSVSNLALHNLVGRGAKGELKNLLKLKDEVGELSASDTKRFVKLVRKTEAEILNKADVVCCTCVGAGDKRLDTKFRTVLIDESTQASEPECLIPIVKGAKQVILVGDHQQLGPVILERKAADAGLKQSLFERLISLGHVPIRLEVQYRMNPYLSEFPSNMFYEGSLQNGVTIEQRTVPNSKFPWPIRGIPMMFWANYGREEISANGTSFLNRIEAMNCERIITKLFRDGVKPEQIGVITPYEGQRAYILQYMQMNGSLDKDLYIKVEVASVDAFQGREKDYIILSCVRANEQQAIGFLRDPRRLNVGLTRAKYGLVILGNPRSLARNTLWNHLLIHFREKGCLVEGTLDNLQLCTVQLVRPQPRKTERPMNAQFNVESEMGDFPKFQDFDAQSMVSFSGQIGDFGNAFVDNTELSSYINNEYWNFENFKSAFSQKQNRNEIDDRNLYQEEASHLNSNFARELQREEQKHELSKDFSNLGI


Assays:
Experiment in all cases: affinity purification with mass spectrometry
[1] = molecular target: T1, Dcp1-TAP (S. cerevisiae)
[2] = molecular target: T2, Ebs1-TAP (S. cerevisiae)
[3] = molecular target: T3, Hrr25-TAP (S. cerevisiae)
[4] = molecular target: T4, Nmd4-TAP (S. cerevisiae)
[5] = molecular target: T1, Dcp1-TAP (S. cerevisiae); remark: listed apart in the source
[6] = molecular target: T2, Ebs1-TAP (S. cerevisiae); remark: listed apart in the source
[7] = molecular target: T3, Hrr25-TAP (S. cerevisiae); remark: listed apart in the source
[8] = molecular target: T4, Nmd4-TAP (S. cerevisiae); remark: listed apart in the source
[9] = molecular target: T5, Upf1-TAP (S. cerevisiae), P30771; settings: remark: other sources report otherwise

binding [1]	binding [2]	binding [3]	binding [4]	binding [5]	binding [6]	binding [7]	binding [8]	binding [9]	Binder
binds	binds	binds	binds	binds	binds	binds	binds	–	Upf1 (protein, UniProt P30771 1-971) MVGSGSHTPYDISNSPSDVNVQPATQLNSTLVEDDDVDNQLFEEAQVTETGFRSPSASDNSCAYCGIDSAKCVIKCNSCKKWFCNTKNGTSSSHIVNHLVLSHHNVVSLHPDSDLGDTVLECYNCGRKNVFLLGFVSAKSEAVVVLLCRIPCAQTKNANWDTDQWQPLIEDRQLLSWVAEQPTEEEKLKARLITPSQISKLEAKWRSNKDATINDIDAPEEQEAIPPLLLRYQDAYEYQRSYGPLIKLEADYDKQLKESQALEHISVSWSLALNNRHLASFTLSTFESNELKVAIGDEMILWYSGMQHPDWEGRGYIVRLPNSFQDTFTLELKPSKTPPPTHLTTGFTAEFIWKGTSYDRMQDALKKFAIDKKSISGYLYYKILGHQVVDISFDVPLPKEFSIPNFAQLNSSQSNAVSHVLQRPLSLIQGPPGTGKTVTSATIVYHLSKIHKDRILVCAPSNVAVDHLAAKLRDLGLKVVRLTAKSREDVESSVSNLALHNLVGRGAKGELKNLLKLKDEVGELSASDTKRFVKLVRKTEAEILNKADVVCCTCVGAGDKRLDTKFRTVLIDESTQASEPECLIPIVKGAKQVILVGDHQQLGPVILERKAADAGLKQSLFERLISLGHVPIRLEVQYRMNPYLSEFPSNMFYEGSLQNGVTIEQRTVPNSKFPWPIRGIPMMFWANYGREEISANGTSFLNRIEAMNCERIITKLFRDGVKPEQIGVITPYEGQRAYILQYMQMNGSLDKDLYIKVEVASVDAFQGREKDYIILSCVRANEQQAIGFLRDPRRLNVGLTRAKYGLVILGNPRSLARNTLWNHLLIHFREKGCLVEGTLDNLQLCTVQLVRPQPRKTERPMNAQFNVESEMGDFPKFQDFDAQSMVSFSGQIGDFGNAFVDNTELSSYINNEYWNFENFKSAFSQKQNRNEIDDRNLYQEEASHLNSNFARELQREEQKHELSKDFSNLGI
–	–	–	–	–	–	–	–	no binding	eRF3 (yeast Sup35), P05453 1-685 (protein) MSDSNQGNNQQNYQQYSQNGNQQQGNNRYQGYQAYNAQAQPAGGYYQNYQGYSGYQQGGYQQYNPDAGYQQQYNPQGGYQQYNPQGGYQQQFNPQGGRGNYKNFNYNNNLQGYQAGFQPQSQGMSLNDFQKQQKQAAPKPKKTLKLVSSSGIKLANATKKVGTKPAESDKKEEEKSAETKEPTKEPTKVEEPVKKEEKPVQTEEKTEEKSELPKVEDLKISESTHNTNNANVTSADALIKEQEEEVDDEVVNDMFGGKDHVSLIFMGHVDAGKSTMGGNLLYLTGSVDKRTIEKYEREAKDAGRQGWYLSWVMDTNKEERNDGKTIEVGKAYFETEKRRYTILDAPGHKMYVSEMIGGASQADVGVLVISARKGEYETGFERGGQTREHALLAKTQGVNKMVVVVNKMDDPTVNWSKERYDQCVSNVSNFLRAIGYNIKTDVVFMPVSGYSGANLKDHVDPKECPWYTGPTLLEYLDTMNHVDRHINAPFMLPIAAKMKDLGTIVEGKIESGHIKKGQSTLLMPNKTAVEIQNIYNETENEVDMAMCGEQVKLRIKGVEEEDISPGFVLTSPKNPIKSVTKFVAQIAIVELKSIIAAGFSCVMHVHTAIEEVHIVKLLHKLEKGTNRKSKKPPAFAKKGMKVIAVLETEAPVCVETYQDYPQLGRFTLRDQGTTIAIGKIVKIAE
